Results on 3 substances are retold here after article doi:10.1101/2020.06.14.150508.

Assay [1] deals with MKK7^[change]-HA (Arabidopsis thaliana) (UniProt Q9LPQ3). Description: co-IP.
In assay [2] the target is MKK7^[change]-RFP (Arabidopsis thaliana) (UniProt Q9LPQ3). Description: FRET or BRET. Background: In BRET a luciferase serves as donor, and the signal depends on an acceptor being close.
Assay [3] deals with MKK7^[change]-cluc (Arabidopsis thaliana) (UniProt Q9LPQ3). The experiment in a line: split reporter.

These are yes or no findings as the source states them, for the method shown. Binding seen in cells or lysates may run through a third protein. Some binding calls cover weakened binding; strength is not graded here.

On to “HopZ1a^C216A-3xFLAG (from UniProt Q6VE93 1-369)”, for which the binding result in assay [1] was “binds”. With “HopZ1a^C216A-GFP (from UniProt Q6VE93 1-369)”, the binding result in assay [2] is listed as “binds”. Regarding “HopZ1a^C216A-nluc (from UniProt Q6VE93 1-369)”, the binding result in assay [3] is “binds”.
